# Results reported in patent publication US5710123A (Centocor, Inc., priority 1995, dated 1998).
# HELM strings list residues between dots; [ac] is acetyl, [am] amide, other brackets name non-standard units.
# Test: general procedure: Boc solid-phase peptide synthesis; 4-methyl benzhydrylamine resin
# Conditions: whole synthesis, scale 0.5 mmol
row,Substance,crude mass [mg]
1,PEPTIDE1{C.H.K.L.K.A.A.L.C.Y.[am]}$$$$V2.0,748
2,PEPTIDE1{C.L.K.K.K.H.A.L.C.Y.[am]}$$$$V2.0,720
3,PEPTIDE1{C.S.K.K.K.L.A.L.C.Y.[am]}$$$$V2.0,680
